The results in this text go back to PMC9844640.

No constants are given. Whether binding was seen depends on the method and setting. Binding calls can cover weak binding; strength is not graded here. For some of these results: Sequences can lack the tags named with a protein. For some of these results: In cells and extracts the contact can be indirect.

One test deals with T1, GST‐TPD52 (UniProt P55327).
T1 sequence: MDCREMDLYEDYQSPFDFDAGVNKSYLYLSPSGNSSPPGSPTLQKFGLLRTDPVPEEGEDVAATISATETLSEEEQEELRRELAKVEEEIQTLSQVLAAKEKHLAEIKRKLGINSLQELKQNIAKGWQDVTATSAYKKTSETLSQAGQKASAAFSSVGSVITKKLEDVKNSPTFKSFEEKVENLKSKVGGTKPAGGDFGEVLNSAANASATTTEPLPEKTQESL
The test can be described thus: pull-down; GST pull-down in vitro: GST-TPD52 with His-tagged AMPK subunits or AMPKα1 kinase domain, all purified from E. coli (Figure 1B, 1D); both purified.

The target of test [1] is AMPKα (endogenous) (human (endogenous in 293T, SK-BR-3 and MDA-MB-231)). The test can be described thus: co-IP; SK-BR-3 cells, untreated or treated for 24 h with AICAR, metformin, amino acid shortage or glucose deprivation.
The target is the same in test [2]. The test can be described thus: co-IP; endogenous immunoprecipitation in 293T cells, NETN buffer, antibody with Protein A/G beads; irrelevant IgG as control.
Test [3] has the same target. In words: co-IP; MDA-MB-231 cells, control or stably transfected with TPD52; LKB1-AMPKα interaction examined.

Regarding “His‐tagged AMPKα1 kinase domain (AMPKαE) (domain or fragment)”, the binding result in the test with GST‐TPD52 is listed as “binds”.

B1: TPD52 (endogenous) (protein, UniProt P55327 1-224)
chain: T1 sequence
For B1, the binding entry in test [1] and in test [2] was “binds” each time.

B2: TPD52 (stably transfected in MDA‐MB‐231 cells) (protein, UniProt P55327 1-224)
chain: T1 sequence
Take B2: the binding result in test [3] is given as “binds”.
